Data as given in PubChem BioAssay AID602196 (INSERM, 2012).
Shown is a random part of about 23,000 deposited reagents. 455 of all reagents (2%) count as active. 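Active includes both protection and sensitisation; some change values fall well beyond the stated -50 to +50 range.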 Not stated in the record: the amount of reagent.

- Assay: 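Knock-downs that protect lung cancer cells from cisplatin or sensitise them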
- System: human A549 lung cancer cells
- Knock-down reagent: siRNA pair against human genes
- Time to read-out: 48 h transfection before cisplatin; time from cisplatin to read-out not stated
- Conditions: cisplatin at a dose killing half of control-siRNA cells; exact dose and duration not given
- Detection: 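Cisplatin cell death as a shift from the 50% death seen with control siRNA; siRNAs toxic or growth-blocking alone scored 0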
- Scale: two-siRNA summed score (-2 to +2): higher = both siRNAs protect from cisplatin killing; -2 means both sensitise; mean protection from cisplatin (shift in death) and protection from cisplatin (shift in death), siRNA C and protection from cisplatin (shift in death), siRNA D: higher = protection from cisplatin killing
- Hit rule: 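siRNAs harmful alone (LDH or WST-1) get 0; others get +1 for less and -1 for more cisplatin killing; genes are active when the two siRNAs give the same sign, summing to ±2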
- Calls: active = both siRNAs shift cisplatin killing the same way; inactive = no consistent shift, or siRNA harmful alone

Target gene,PubChem SID,two-siRNA summed score (-2 to +2),mean protection from cisplatin (shift in death) (%),"protection from cisplatin (shift in death), siRNA C (%)","protection from cisplatin (shift in death), siRNA D (%)",outcome
TTL (tubulin tyrosine ligase),SID131513362,0,6.5,7.7,5.3,inactive
KIF3A (kinesin family member 3A),SID131500363,-2,-17.9,-16.6,-19.2,active
HMFN0672,SID131512055,0,5.1,0.9,9.3,inactive
RNF170 (ring finger protein 170),SID131507632,0,0.1,18.9,-18.7,inactive
CNTFR (ciliary neurotrophic factor receptor),SID131518712,0,25,10.2,39.7,inactive
NSA2 (NSA2 ribosome biogenesis factor),SID131521864,1,15.2,18.6,11.8,inactive
NAT16 (N-acetyltransferase 16 (putative)),SID131513458,0,6.6,0.5,12.7,inactive
"SEC11A (SEC11 homolog A, signal peptidase complex subunit)",SID131516188,0,10.4,17.2,3.7,inactive
ARL6IP1 (ARL6 interacting reticulophagy regulator 1),SID131515521,0,9.3,14.3,4.3,inactive
LRRC57 (leucine rich repeat containing 57),SID131501462,-1,-9.6,14.9,-34.1,inactive
USF1 (upstream transcription factor 1),SID131518914,1,-7.3,-24.1,9.5,inactive
LOC392030,SID131519870,1,7.8,0.3,15.3,inactive
COLCA1 (colorectal cancer associated 1),SID131505912,0,-2.4,2.3,-7,inactive
RASSF4 (Ras association domain family member 4),SID131521830,1,15,22.1,8,inactive
LOC440622,SID131518050,0,16.2,9.2,23.2,inactive
PKD1L2 (polycystin 1 like 2 (gene/pseudogene)),SID131518844,0,31.6,39.8,23.4,inactive
PTMS (parathymosin),SID131502467,-1,-2,-17.1,13,inactive
ETFB (electron transfer flavoprotein subunit beta),SID131506162,0,-1.9,-1.5,-2.4,inactive
IKZF1 (IKAROS family zinc finger 1),SID131501562,-1,-9,-2.2,-15.8,inactive
IKZF1 (IKAROS family zinc finger 1),SID131522567,1,20,15.3,24.7,inactive
AMD1 (adenosylmethionine decarboxylase 1),SID131520612,1,10.5,15.8,5.1,inactive
MTCH2,SID131504939,0,-4.1,-13.1,4.9,inactive
LOC387883,SID131516653,0,11.3,21.5,1.1,inactive
FAM107B (family with sequence similarity 107 member B),SID131500981,-1,-13.6,-18.4,-8.9,inactive
LRGUK (leucine rich repeats and guanylate kinase domain containing),SID131511550,0,4.5,-0.8,9.7,inactive
LOC440995,SID131518895,0,44.3,9.4,79.2,inactive
LARP1B (La ribonucleoprotein 1B),SID131518406,0,19.3,15.7,22.8,inactive
LOC441721,SID131522758,1,23.1,8.1,38,inactive
"ALPG (alkaline phosphatase, germ cell)",SID131506546,0,-1.4,-4.4,1.7,inactive
"RABEP1 (rabaptin, RAB GTPase binding effector protein 1)",SID131503580,0,-9.1,-5.6,-12.6,inactive
ADAMTS4 (ADAM metallopeptidase with thrombospondin type 1 motif 4),SID131510098,0,2.9,3.2,2.5,inactive
"ERCC3 (ERCC excision repair 3, TFIIH core complex helicase subunit)",SID131518413,0,19.3,53.5,-14.8,inactive
LOC442434,SID131517530,0,13.7,11.8,15.7,inactive
RDH8 (retinol dehydrogenase 8),SID131503893,0,-7.3,-15.1,0.6,inactive
PGLYRP1 (peptidoglycan recognition protein 1),SID131502908,0,-18.9,-44.5,6.7,inactive
SREK1IP1 (SREK1 interacting protein 1),SID131514862,0,8.3,7.6,9.1,inactive
SLC24A3,SID131510630,0,3.4,-0.5,7.4,inactive
LOC389390,SID131507142,0,-0.5,-2.6,1.6,inactive
XBP1 (X-box binding protein 1),SID131513061,0,6.2,3.7,8.6,inactive
DTWD2 (DTW motif tRNA-uridine aminocarboxypropyltransferase 2),SID131515794,0,9.7,9.2,10.2,inactive
DNAH5 (dynein axonemal heavy chain 5),SID131506394,0,-1.6,-10.1,6.9,inactive
IL32 (interleukin 32),SID131517926,0,15.4,10.2,20.7,inactive
IL32 (interleukin 32),SID131523109,2,20.1,20.2,20.1,active
MRPS35 (mitochondrial ribosomal protein S35),SID131506176,0,-1.9,-4.8,1,inactive
LOC387887,SID131516072,0,10.2,23.5,-3.1,inactive
EXPH5 (exophilin 5),SID131508178,0,0.7,-2.8,4.3,inactive
OGDHL (oxoglutarate dehydrogenase L),SID131510217,0,3,9.4,-3.4,inactive
CCL25 (C-C motif chemokine ligand 25),SID131504525,0,-5.2,1.8,-12.1,inactive
OSTF1 (osteoclast stimulating factor 1),SID131507347,0,-0.2,12.7,-13.2,inactive
LINC00924 (long independently transcribed non-coding RNA 924),SID131509729,0,2.4,9.5,-4.6,inactive
LRP3 (LDL receptor related protein 3),SID131515268,0,8.9,3.9,13.9,inactive
CIRSR (corepressor of RBPJ and splicing regulator),SID131506468,0,-1.5,5,-8,inactive
SF3A3 (splicing factor 3a subunit 3),SID131517954,0,15.6,18.7,12.4,inactive
COCH (cochlin),SID131523003,2,16.4,19.2,13.7,active
FLJ39779,SID131520954,1,11.7,12.5,10.8,inactive
C4B (complement C4B (Chido/Rodgers blood group)),SID131517966,0,15.6,18.1,13.2,inactive
GSTP1 (glutathione S-transferase pi 1),SID131507375,0,-0.2,7.9,-8.3,inactive
LGI2 (leucine rich repeat LGI family member 2),SID131515865,0,9.8,8.8,10.8,inactive
LOC388887,SID131506870,0,-0.9,-6.9,5.1,inactive
RITA1 (RBPJ interacting and tubulin associated 1),SID131500996,-1,-13.5,-9.1,-18,inactive
BAK1 (BCL2 antagonist/killer 1),SID131519108,1,2.5,16.1,-11,inactive
ZNF888 (zinc finger protein 888),SID131508639,0,1.3,5.8,-3.2,inactive
NOBOX (NOBOX oogenesis homeobox),SID131512223,0,5.2,11.7,-1.2,inactive
PPID (peptidylprolyl isomerase D),SID131506728,0,-1.1,-0.6,-1.6,inactive
LOC441735,SID131520541,1,10.2,13.9,6.6,inactive
CCDC122 (coiled-coil domain containing 122),SID131506763,0,-1,-1.6,-0.4,inactive
SLC35C1,SID131515464,0,9.2,6.4,12,inactive
CLDN20 (claudin 20),SID131507468,0,-0.1,1.2,-1.4,inactive
TAS2R41 (taste 2 receptor member 41),SID131512933,0,6,6.7,5.3,inactive
RBM34 (RNA binding motif protein 34),SID131512212,0,5.2,7.1,3.4,inactive
ANKRD30B (ankyrin repeat domain 30B),SID131514918,0,8.4,13.3,3.5,inactive
OR11H4 (olfactory receptor family 11 subfamily H member 4),SID131518546,0,21.4,-0.8,43.6,inactive
CSN1S1 (casein alpha s1),SID131503347,0,-10.7,-10.8,-10.7,inactive

In a second layout: entries from further up.
AMD1 (adenosylmethionine decarboxylase 1) [SID131520612] | two-siRNA summed score (-2 to +2) = 1; mean protection from cisplatin (shift in death) (%) = 10.5; protection from cisplatin (shift in death), siRNA C (%) = 15.8; protection from cisplatin (shift in death), siRNA D (%) = 5.1; outcome = inactive
MTCH2 [SID131504939] | two-siRNA summed score (-2 to +2) = 0; mean protection from cisplatin (shift in death) (%) = -4.1; protection from cisplatin (shift in death), siRNA C (%) = -13.1; protection from cisplatin (shift in death), siRNA D (%) = 4.9; outcome = inactive
LOC387883 [SID131516653] | two-siRNA summed score (-2 to +2) = 0; mean protection from cisplatin (shift in death) (%) = 11.3; protection from cisplatin (shift in death), siRNA C (%) = 21.5; protection from cisplatin (shift in death), siRNA D (%) = 1.1; outcome = inactive
FAM107B (family with sequence similarity 107 member B) [SID131500981] | two-siRNA summed score (-2 to +2) = -1; mean protection from cisplatin (shift in death) (%) = -13.6; protection from cisplatin (shift in death), siRNA C (%) = -18.4; protection from cisplatin (shift in death), siRNA D (%) = -8.9; outcome = inactive
LRGUK (leucine rich repeats and guanylate kinase domain containing) [SID131511550] | two-siRNA summed score (-2 to +2) = 0; mean protection from cisplatin (shift in death) (%) = 4.5; protection from cisplatin (shift in death), siRNA C (%) = -0.8; protection from cisplatin (shift in death), siRNA D (%) = 9.7; outcome = inactive
LOC440995 [SID131518895] | two-siRNA summed score (-2 to +2) = 0; mean protection from cisplatin (shift in death) (%) = 44.3; protection from cisplatin (shift in death), siRNA C (%) = 9.4; protection from cisplatin (shift in death), siRNA D (%) = 79.2; outcome = inactive
LARP1B (La ribonucleoprotein 1B) [SID131518406] | two-siRNA summed score (-2 to +2) = 0; mean protection from cisplatin (shift in death) (%) = 19.3; protection from cisplatin (shift in death), siRNA C (%) = 15.7; protection from cisplatin (shift in death), siRNA D (%) = 22.8; outcome = inactive
LOC441721 [SID131522758] | two-siRNA summed score (-2 to +2) = 1; mean protection from cisplatin (shift in death) (%) = 23.1; protection from cisplatin (shift in death), siRNA C (%) = 8.1; protection from cisplatin (shift in death), siRNA D (%) = 38; outcome = inactive
ALPG (alkaline phosphatase, germ cell) [SID131506546] | two-siRNA summed score (-2 to +2) = 0; mean protection from cisplatin (shift in death) (%) = -1.4; protection from cisplatin (shift in death), siRNA C (%) = -4.4; protection from cisplatin (shift in death), siRNA D (%) = 1.7; outcome = inactive
RABEP1 (rabaptin, RAB GTPase binding effector protein 1) [SID131503580] | two-siRNA summed score (-2 to +2) = 0; mean protection from cisplatin (shift in death) (%) = -9.1; protection from cisplatin (shift in death), siRNA C (%) = -5.6; protection from cisplatin (shift in death), siRNA D (%) = -12.6; outcome = inactive
